Experiment: general procedure: peptide synthesis; 2-chlorotrityl resin; HATU; PyAOP

Substance | final purity (method not given) (coupling step) [% purity] | step yield (coupling step) [% yield] | further results
tri-tert-butyl (3S,10S,14S)-1-[(1r,4S)-4-(aminomethyl)cyclohexyl]-3-[(4-tert-butylphenyl)methyl]-1,4,12-trioxo-2,5,11,13-tetraazahexadecane-10,14,16-tricarboxylate |  |  | step yield (late stage modification step): 74% yield
tri-tert-butyl (3S,10S,14S)-1-[(1r,4S)-4-(aminomethyl)cyclohexyl]-3-[(naphthalen-2-yl)methyl]-1,4,12-trioxo-2-[(6-oxo-1,6-dihydropyridin-2-yl)methyl]-2,5,11,13-tetraazahexadecane-10,14,16-tricarboxylate |  |  | final purity (method not given) (late stage modification step): 85% purity; step yield (late stage modification step): 14% yield
tri-tert-butyl (3S,10S,14S)-1-{4-[({[(9H-fluoren-9-yl)methoxy]carbonyl}amino)methyl]phenyl}-3-[(naphthalen-2-yl)methyl]-1,4,12-trioxo-2,5,11,13-tetraazahexadecane-10,14,16-tricarboxylate | 95 | 25 | 
tri-tert-butyl (3S,10S,14S)-1-{(1r,4S)-4-[({[(9H-fluoren-9-yl)methoxy]carbonyl}amino)methyl]cyclohexyl}-1,4,12-trioxo-3-[(quinolin-2-yl)methyl]-2,5,11,13-tetraazahexadecane-10,14,16-tricarboxylate | 95 | 32 | 
tri-tert-butyl (3S,10S,14S)-1-{(1r,4S)-4-[({[(9H-fluoren-9-yl)methoxy]carbonyl}amino)methyl]cyclohexyl}-1,4,12-trioxo-3-[(quinolin-3-yl)methyl]-2,5,11,13-tetraazahexadecane-10,14,16-tricarboxylate | 100 | 31 | 
tri-tert-butyl (3S,10S,14S)-1-{(1r,4S)-4-[({[(9H-fluoren-9-yl)methoxy]carbonyl}amino)methyl]cyclohexyl}-1,4,12-trioxo-3-{[3-(pentafluoro-lambda^6-sulfanyl)phenyl]methyl}-2,5,11,13-tetraazahexadecane-10,14,16-tricarboxylate | 99 | 15 | 
tri-tert-butyl (3S,10S,14S)-1-{(1r,4S)-4-[({[(9H-fluoren-9-yl)methoxy]carbonyl}amino)methyl]cyclohexyl}-3-[(2-methylphenyl)methyl]-1,4,12-trioxo-2,5,11,13-tetraazahexadecane-10,14,16-tricarboxylate | 93 | 75 | 
tri-tert-butyl (3S,10S,14S)-1-{(1r,4S)-4-[({[(9H-fluoren-9-yl)methoxy]carbonyl}amino)methyl]cyclohexyl}-3-[(3-fluorophenyl)methyl]-1,4,12-trioxo-2,5,11,13-tetraazahexadecane-10,14,16-tricarboxylate |  | 26 | 
tri-tert-butyl (3S,10S,14S)-1-{(1r,4S)-4-[({[(9H-fluoren-9-yl)methoxy]carbonyl}amino)methyl]cyclohexyl}-3-[(4-methylphenyl)methyl]-1,4,12-trioxo-2,5,11,13-tetraazahexadecane-10,14,16-tricarboxylate | 98 | 64 | 
tri-tert-butyl (3S,10S,14S)-1-{(1r,4S)-4-[({[(9H-fluoren-9-yl)methoxy]carbonyl}amino)methyl]cyclohexyl}-3-[(naphthalen-2-yl)methyl]-1,4,12-trioxo-2-[(6-oxo-1,6-dihydropyridin-2-yl)methyl]-2,5,11,13-tetraazahexadecane-10,14,16-tricarboxylate |  | 11 | 
tri-tert-butyl (3S,10S,14S)-3-[(4-tert-butylphenyl)methyl]-1-{(1r,4S)-4-[({[(9H-fluoren-9-yl)methoxy]carbonyl}amino)methyl]cyclohexyl}-1,4,12-trioxo-2,5,11,13-tetraazahexadecane-10,14,16-tricarboxylate |  | 57 | 
tri-tert-butyl (3S,10S,14S)-3-[([1,1′-biphenyl]-4-yl)methyl]-1-{(1r,4S)-4-[({[(9H-fluoren-9-yl)methoxy]carbonyl}amino)methyl]cyclohexyl}-1,4,12-trioxo-2,5,11,13-tetraazahexadecane-10,14,16-tricarboxylate |  | 25 | 
tri-tert-butyl (3S,10S,14S)-3-[(naphthalen-2-yl)methyl]-1,4,12-trioxo-1-[4-({2-[4,7,10-tris(2-tert-butoxy-2-oxoethyl)-1,4,7,10-tetraazacyclododecan-1-yl]acetamido}methyl)phenyl]-2,5,11,13-tetraazahexadecane-10,14,16-tricarboxylate |  |  | conjugation yield (conjugation step): 55% yield; final purity (method not given) (conjugation step): 85% purity
tri-tert-butyl (4S,11S,15S)-1-(4-aminophenyl)-4-[(naphthalen-2-yl)methyl]-2,5,13-trioxo-3,6,12,14-tetraazaheptadecane-11,15,17-tricarboxylate |  |  | final purity (method not given) (late stage modification step): 90% purity; step yield (late stage modification step): 77% yield
tri-tert-butyl (4S,11S,15S)-1-[4-({[(9H-fluoren-9-yl)methoxy]carbonyl}amino)phenyl]-4-[(naphthalen-2-yl)methyl]-2,5,13-trioxo-3,6,12,14-tetraazaheptadecane-11,15,17-tricarboxylate | 80 | 40 | 
tri-tert-butyl (7S,14S,18S)-7-({(1r,4S)-4-[({[(9H-fluoren-9-yl)methoxy]carbonyl}amino)methyl]cyclohexane-1-carbonyl}amino)-1,8,16-trioxo-1-(pyridin-3-yl)-2,9,15,17-tetraazaicosane-14,18,20-tricarboxylate | 98 | 70 | 
tri-tert-butyl (8S,15S,19S)-8-({(1r,4S)-4-[({[(9H-fluoren-9-yl)methoxy]carbonyl}amino)methyl]cyclohexane-1-carbonyl}amino)-2,9,17-trioxo-3,10,16,18-tetraazahenicosane-15,19,21-tricarboxylate | 85 | 48 | 
tri-tert-butyl (8S,15S,19S)-8-{[(1r,4S)-4-(aminomethyl)cyclohexane-1-carbonyl]amino}-2,9,17-trioxo-3,10,16,18-tetraazahenicosane-15,19,21-tricarboxylate |  |  | final purity (method not given) (late stage modification step): 73% purity
tri-tert-butyl (10S,14S)-1-{5-[({[(9H-fluoren-9-yl)methoxy]carbonyl}amino)methyl]pyridin-2-yl}-3-[(naphthalen-2-yl)methyl]-1,4,12-trioxo-2,5,11,13-tetraazahexadecane-10,14,16-tricarboxylate | 90 | 78 | 

Reference: patent US20230072421A1 (Bayer AS, priority 2019, published 2023)
